# According to article PMC8494705:
# These are yes or no findings as the source states them, for the method shown.
# B1: Sucrose phosphorylase from Leuconostoc mesenteroides ATCC 12,291 (LmSPase), wild type (enzyme, UniProt Q59495 1-490)
# chain: MEIQNKAMLITYADSLGKNLKDVHQVLKEDIGDAIGGVHLLPFFPSTGDRGFAPADYTRVDAAFGDWADVEALGEEYYLMFDFMINHISRESVMYQDFKKNHDDSKYKDFFIRWEKFWAKAGENRPTQADVDLIYKRKDKAPTQEITFDDGTTENLWNTFGEEQIDIDVNSAIAKEFIKTTLEDMVKHGANLIRLDAFAYAVKKVDTNDFFVEPEIWDTLNEVREILTPLKAEILPEIHEHYSIPKKINDHGYFTYDFALPMTTLYTLYSGKTNQLAKWLKMSPMKQFTTLDTHDGIGVVDARDILTDDEIDYASEQLYKVGANVKKTYSSASYNNLDIYQINSTYYSALGNDDAAYLLSRVFQVFAPGIPQIYYVGLLAGENDIALLESTKEGRNINRHYYTREEVKSEVKRPVVANLLKLLSWRNESPAFDLAGSITVDTPTDTTIVVTRQDENGQNKAVLTADAANKTFEIVENGQTVMSSDNLTQN
# Target: Sucrose phosphorylase from Leuconostoc mesenteroides ATCC 12,291 (LmSPase), wild type (Leuconostoc mesenteroides ATCC 12,291) (UniProt Q59495)
# Assay: SEC; purified wild-type LmSPase on Superdex 200 10/300 GL; molecular weight calculated from the standard curve of marker proteins; apparent 63.4 kDa against theoretical 56.8 kDa; both purified
binder,measurement,value
B1,binding,no binding
